# In the supplement of paper PMC8728848:
# This is one part of the list.
# Legend:
# Test in all cases: glycan array binding signal (z-score within array); higher = stronger binding
# Conditions in all cases: glycan notation: IUPAC condensed, linker removed
# Neu5Ac(a2-6)Gal(b1-4)Glc = target: Neu5Ac(a2-6)Gal(b1-4)Glc
# Procedure, shortened: (§1)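 Glycan array data came from 3228 arrays in the Consortium for Functional Glycomics database, and only arrays with an available protein sequence were kept. Glycan names were put into IUPAC-condensed notation, and columns mapping to the same glycan were averaged. The binding signal is a within-array Z-score, averaged across arrays of one protein sequence run at different concentrations or buffers and across linkers. A negative Z-score can be read as non-binding.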
# [1] = target: Neu5Ac(a2-6)Gal(b1-4)GlcNAc
# Procedure, shortened: as §1
# [2] = target: Neu5Ac(a2-6)Gal(b1-4)GlcNAc(b1-2)Man(a1-3)Man(b1-4)GlcNAc(b1-4)GlcNAc
# Procedure, shortened: as §1
# [3] = target: Neu5Ac(a2-6)Gal(b1-4)GlcNAc(b1-2)Man(a1-3)[Gal(b1-4)GlcNAc(b1-2)Man(a1-6)]Man(b1-4)GlcNAc(b1-4)GlcNAc
# Procedure, shortened: as §1
# [4] = target: Neu5Ac(a2-6)Gal(b1-4)GlcNAc(b1-2)Man(a1-3)[GlcNAc(b1-2)Man(a1-6)]Man(b1-4)GlcNAc(b1-4)GlcNAc
# Procedure, shortened: as §1
# [5] = target: Neu5Ac(a2-6)Gal(b1-4)GlcNAc(b1-2)Man(a1-3)[GlcNAc(b1-2)Man(b1-4)GlcNAc(b1-2)Man(a1-6)]Man(b1-4)GlcNAc(b1-4)GlcNAc
# Procedure, shortened: as §1
# [6] = target: Neu5Ac(a2-6)Gal(b1-4)GlcNAc(b1-2)Man(a1-3)[Man(a1-6)]Man(b1-4)GlcNAc(b1-4)GlcNAc
# Procedure, shortened: as §1
# [7] = target: Neu5Ac(a2-6)Gal(b1-4)GlcNAc(b1-2)Man(a1-3)[Neu5Ac(a2-6)Gal(b1-4)GlcNAc(b1-2)Man(a1-6)]Man(b1-4)GlcNAc(b1-4)GlcNAc
# Procedure, shortened: as §1
# [8] = target: Neu5Ac(a2-6)Gal(b1-4)GlcNAc(b1-2)Man(a1-6)Man(b1-4)GlcNAc(b1-4)GlcNAc
# Procedure, shortened: as §1
# [9] = target: Neu5Ac(a2-6)Gal(b1-4)GlcNAc(b1-2)Man(a1-6)[Gal(b1-4)GlcNAc(b1-2)Man(a1-3)]Man(b1-4)GlcNAc(b1-4)GlcNAc
# Procedure, shortened: as §1
# [10] = target: Neu5Ac(a2-6)Gal(b1-4)GlcNAc(b1-2)Man(a1-6)[GlcNAc(b1-2)Man(a1-3)]Man(b1-4)GlcNAc(b1-4)GlcNAc
# Procedure, shortened: as §1
# [11] = target: Neu5Ac(a2-6)Gal(b1-4)GlcNAc(b1-2)Man(a1-6)[Man(a1-3)]Man(b1-4)GlcNAc(b1-4)GlcNAc
# Procedure, shortened: as §1
# [12] = target: Neu5Ac(a2-6)Gal(b1-4)GlcNAc(b1-3)Gal(b1-3)GlcNAc
# Procedure, shortened: as §1
# [13] = target: Neu5Ac(a2-6)Gal(b1-4)GlcNAc(b1-3)Gal(b1-4)GlcNAc
# Procedure, shortened: as §1
# [14] = target: Neu5Ac(a2-6)Gal(b1-4)GlcNAc(b1-3)Gal(b1-4)GlcNAc(b1-3)Gal(b1-4)GlcNAc
# Procedure, shortened: as §1
# [15] = target: Neu5Ac(a2-6)Gal(b1-4)GlcNAc(b1-3)Gal(b1-4)[Fuc(a1-3)]GlcNAc(b1-3)Gal(b1-4)[Fuc(a1-3)]GlcNAc
# Procedure, shortened: as §1
# [16] = target: Neu5Ac(a2-6)Gal(b1-4)GlcNAc(b1-3)GalNAc
# Procedure, shortened: as §1
# [17] = target: Neu5Ac(a2-6)Gal(b1-4)GlcNAc6S
# Procedure, shortened: as §1
# Neu5Ac(a2-6)GalNAc = target: Neu5Ac(a2-6)GalNAc
# Procedure, shortened: as §1
# [18] = target: Neu5Ac(a2-6)GalNAc(b1-4)GlcNAc
# Procedure, shortened: as §1
# [19] = target: Neu5Ac(a2-6)GlcNAc(b1-4)GlcNAc
# Procedure, shortened: as §1
# [20] = target: Neu5Ac(a2-6)GlcNAc(b1-4)GlcNAc(b1-4)GlcNAc
# Procedure, shortened: as §1
# Neu5Ac(a2-8)Neu5Ac = target: Neu5Ac(a2-8)Neu5Ac
# Procedure, shortened: as §1
# [21] = target: Neu5Ac(a2-8)Neu5Ac(a2-3)Gal(b1-4)Glc
# Procedure, shortened: as §1
# [22] = target: Neu5Ac(a2-8)Neu5Ac(a2-3)[GalNAc(b1-4)]Gal(b1-4)Glc
# Procedure, shortened: as §1
# [23] = target: Neu5Ac(a2-8)Neu5Ac(a2-8)Neu5Ac
# Procedure, shortened: as §1
# [24] = target: Neu5Ac(a2-8)Neu5Ac(a2-8)Neu5Ac(a2-3)Gal(b1-4)Glc
# Procedure, shortened: as §1
# [25] = target: Neu5Ac(a2-8)Neu5Ac(a2-8)Neu5Ac(a2-3)[GalNAc(b1-4)]Gal(b1-4)Glc
# Procedure, shortened: as §1
# [26] = target: Neu5Ac(a2-8)Neu5Ac(a2-8)Neu5Ac(a2-8)Neu5Ac(a2-3)[GalNAc(b1-4)]Gal(b1-4)Glc
# Procedure, shortened: as §1
# [27] = target: Neu5Ac(b2-6)Gal(b1-4)GlcNAc
# Procedure, shortened: as §1
# Neu5Ac(b2-6)GalNAc = target: Neu5Ac(b2-6)GalNAc
# Procedure, shortened: as §1
# [28] = target: Neu5Ac9Ac(a2-3)Gal(b1-3)GlcNAc
# Procedure, shortened: as §1
# [29] = target: Neu5Ac9Ac(a2-3)Gal(b1-4)GlcNAc
# Procedure, shortened: as §1
# [30] = target: Neu5Ac9Ac(a2-6)Gal(b1-4)GlcNAc
# Procedure, shortened: as §1
# [31] = target: Neu5Gc(a2-3)Gal(b1-3)GlcNAc
# Procedure, shortened: as §1
# [32] = target: Neu5Gc(a2-3)Gal(b1-3)[Fuc(a1-4)]GlcNAc
# Procedure, shortened: as §1
# Neu5Gc(a2-3)Gal(b1-4)Glc = target: Neu5Gc(a2-3)Gal(b1-4)Glc
# Procedure, shortened: as §1
# [33] = target: Neu5Gc(a2-3)Gal(b1-4)GlcNAc
# Procedure, shortened: as §1
# [34] = target: Neu5Gc(a2-3)Gal(b1-4)[Fuc(a1-3)]GlcNAc
# Procedure, shortened: as §1
# [35] = target: Neu5Gc(a2-6)Gal(b1-4)GlcNAc
# Procedure, shortened: as §1
# Neu5Gc(a2-6)GalNAc = target: Neu5Gc(a2-6)GalNAc
# Procedure, shortened: as §1
# [36] = target: Neu5Gc(b2-6)Gal(b1-4)GlcNAc
# Procedure, shortened: as §1
binder,measurement,setting,value
"CTLX (Homo sapiens), Q6UXS0 (protein) SLCPLFWMEFKGHCYRFFPLNKTWAEADLYCSEFSVGRKSAKLASIHSWEENVFVYDLVNSCVPGIPADVWTGLHDHRQEGQFEWTDGSSYDYSYWDGSQPDDGVHADPEEEDCVQIWYRPTSALRSWNDNTCSRKFPFVCKIPSLTIH",glycan array binding signal (z-score),Neu5Ac(a2-6)Gal(b1-4)Glc,-0.67
same,glycan array binding signal (z-score),[1],0.022
same,glycan array binding signal (z-score),[2],0.035
same,glycan array binding signal (z-score),[3],-0.158
same,glycan array binding signal (z-score),[4],0.474
same,glycan array binding signal (z-score),[5],-0.339
same,glycan array binding signal (z-score),[6],-0.749
same,glycan array binding signal (z-score),[7],-0.572
same,glycan array binding signal (z-score),[8],0.682
same,glycan array binding signal (z-score),[9],0.542
same,glycan array binding signal (z-score),[10],-0.215
same,glycan array binding signal (z-score),[11],-0.29
same,glycan array binding signal (z-score),[12],-0.812
same,glycan array binding signal (z-score),[13],-0.462
same,glycan array binding signal (z-score),[14],0.3
same,glycan array binding signal (z-score),[15],-0.324
same,glycan array binding signal (z-score),[16],-0.816
same,glycan array binding signal (z-score),[17],-0.462
same,glycan array binding signal (z-score),Neu5Ac(a2-6)GalNAc,-1.03
same,glycan array binding signal (z-score),[18],-0.243
same,glycan array binding signal (z-score),[19],-0.73
same,glycan array binding signal (z-score),[20],-0.675
same,glycan array binding signal (z-score),Neu5Ac(a2-8)Neu5Ac,1.67
same,glycan array binding signal (z-score),[21],-0.365
same,glycan array binding signal (z-score),[22],-0.666
same,glycan array binding signal (z-score),[23],-1.08
same,glycan array binding signal (z-score),[24],-0.799
same,glycan array binding signal (z-score),[25],-1.09
same,glycan array binding signal (z-score),[26],-0.898
same,glycan array binding signal (z-score),[27],-0.51
same,glycan array binding signal (z-score),Neu5Ac(b2-6)GalNAc,-0.381
same,glycan array binding signal (z-score),[28],-0.325
same,glycan array binding signal (z-score),[29],-0.558
same,glycan array binding signal (z-score),[30],2.23
same,glycan array binding signal (z-score),[31],-0.63
same,glycan array binding signal (z-score),[32],-0.794
same,glycan array binding signal (z-score),Neu5Gc(a2-3)Gal(b1-4)Glc,0.909
same,glycan array binding signal (z-score),[33],-0.224
same,glycan array binding signal (z-score),[34],-0.341
same,glycan array binding signal (z-score),[35],-0.99
same,glycan array binding signal (z-score),Neu5Gc(a2-6)GalNAc,-0.736
same,glycan array binding signal (z-score),[36],-0.388
